Values from PubChem BioAssay AID1159578 (Peter MacCallum Cancer Centre, 2015)
Aim: 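Knock-downs that alter how fast lymphatic endothelial cells migrate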 (primary screen). Cells: human lymphatic endothelial cells. Knock-down reagent: siRNA pool against human genes, 40 nM. Duration: 48 h after transfection. Read-out: 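Cells stained with dye and imaged after a scratch; covered wound area and nuclei counted, duplicates averaged, migration set against mock wells and turned into a robust z-score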. Scale: migration robust z-score: higher = faster migration into the scratch; migration relative to mock: higher = more scratch area covered than mock; nuclei per well: higher = more cells in the well. Call rule: 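Pools averaging fewer than 3300 nuclei are never called; remaining pools count as changed when migration robust z lies outside -2 to 2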. Calls: active = migration changed; inactive = no migration change, or too few cells.
Here is one part, drawn at random, of about 18,000 reagents. Of all reagents, about 1,030 (5.7%) got an active call. 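Inactive calls also include pools with fewer than 3300 nuclei, whose migration was not assessed.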 Raw values are not corrected between plates. A number with no mark means an inactive call.

| gene | migration robust z-score | migration class with cell-count check | migration relative to mock | nuclei per well, duplicate mean |
| --- | --- | --- | --- | --- |
| PRAP1 (GeneID 118471) | -0.98 | migration z between -2 and 2; enough cells | 0.63 | 5651 |
| SAP30L (GeneID 79685) | -1.29 | migration z between -2 and 2; enough cells | 0.55 | 4995 |
| TUBGCP6 (GeneID 85378) | 0.42 | migration z between -2 and 2; enough cells | 0.99 | 5933 |
| DMTF1 (GeneID 9988) | -0.99 | migration z between -2 and 2; enough cells | 0.62 | 6760 |
| LIX1L (GeneID 128077) | 2.54 (active) | migration z above 2; enough cells | 1.54 | 7891 |
| YTHDF1 (GeneID 54915) | -0.03 | migration z between -2 and 2; enough cells | 0.88 | 5848 |
| EZH1 (GeneID 2145) | 0.96 | migration z between -2 and 2; enough cells | 0.99 | 5656 |
| GNMT (GeneID 27232) | 0.83 | migration z between -2 and 2; enough cells | 0.96 | 5612 |
| RAD9B (GeneID 144715) | -0.46 | migration z between -2 and 2; enough cells | 0.76 | 5777 |
| WARS2 (GeneID 10352) | 0.48 | migration z between -2 and 2; enough cells | 1.01 | 6477 |
| IGFL3 (GeneID 388555) | -1.36 | migration z between -2 and 2; enough cells | 0.52 | 4654 |
| AMFR (GeneID 267) | 0.08 | migration z between -2 and 2; enough cells | 0.82 | 5494 |
| ANXA3 (GeneID 306) | 0.36 | migration z between -2 and 2; enough cells | 0.88 | 6142 |
| NCAPH2 (GeneID 29781) | -0.92 | migration z between -2 and 2; enough cells | 0.64 | 4672 |
| SACK1G (GeneID 644815) | 0.7 | migration z between -2 and 2; enough cells | 1.06 | 5329 |
| NOL12 (GeneID 79159) | 1.18 | migration z between -2 and 2; enough cells | 1.19 | 4690 |
| IL20RB (GeneID 53833) | 0.66 | migration z between -2 and 2; enough cells | 1.06 | 4014 |
| MRPL53 (GeneID 116540) | -2.18 (active) | migration z below -2; enough cells | 0.32 | 4987 |
| RBSN (GeneID 64145) | 0.31 | migration z between -2 and 2; enough cells | 0.96 | 5956 |
| TSPY1 (GeneID 7258) | 0 | migration z between -2 and 2; enough cells | 0.88 | 5906 |
| OIP5 (GeneID 11339) | -0.09 | migration z between -2 and 2; enough cells | 0.86 | 5794 |
| NPHP4 (GeneID 261734) | 0.77 | migration z between -2 and 2; enough cells | 1.08 | 6626 |
| ANGPT1 (GeneID 284) | -0.72 | migration z between -2 and 2; enough cells | 0.66 | 3633 |
| KLRG2 (GeneID 346689) | -1.92 | migration z between -2 and 2; enough cells | 0.39 | 6245 |
| ZNF354B (GeneID 117608) | 0.78 | migration z between -2 and 2; enough cells | 1.09 | 4359 |
| MRPL51 (GeneID 51258) | 0.93 | migration z between -2 and 2; enough cells | 1.12 | 6452 |
| TMCC3 (GeneID 57458) | 0.42 | migration z between -2 and 2; enough cells | 1 | 6890 |
| RBM45 (GeneID 129831) | -0.08 | migration z between -2 and 2; enough cells | 0.86 | 5812 |
| ZDHHC4 (GeneID 55146) | 0.31 | migration z between -2 and 2; enough cells | 0.96 | 4626 |
| SRCIN1 (GeneID 80725) | -1.55 | migration z between -2 and 2; enough cells | 0.48 | 4282 |
| POLQ (GeneID 10721) | 0.28 | migration z between -2 and 2; enough cells | 0.86 | 6242 |
| TOX3 (GeneID 27324) | -0.5 | migration z between -2 and 2; enough cells | 0.76 | 6234 |
| DLD (GeneID 1738) | 0.34 | migration z between -2 and 2; enough cells | 0.87 | 6158 |
| COG2 (GeneID 22796) | 0.36 | migration z between -2 and 2; enough cells | 0.98 | 6471 |
| IRAK2 (GeneID 3656) | -0.44 | migration z between -2 and 2; enough cells | 0.72 | 4912 |
| KRT79 (GeneID 338785) | 0.26 | migration z between -2 and 2; enough cells | 0.96 | 4781 |
| MUC13 (GeneID 56667) | 1.29 | migration z between -2 and 2; enough cells | 1.22 | 6555 |
| GPRIN1 (GeneID 114787) | -0.74 | migration z between -2 and 2; enough cells | 0.69 | 5517 |
| LRRC37A (GeneID 9884) | -1.59 | migration z between -2 and 2; enough cells | 0.48 | 4716 |
| TAPT1 (GeneID 202018) | 0.67 | migration z between -2 and 2; enough cells | 1.07 | 4051 |
| KCNJ16 (GeneID 3773) | 0.57 | migration z between -2 and 2; enough cells | 0.92 | 6330 |
| TCFL5 (GeneID 10732) | -0.6 | migration z between -2 and 2; enough cells | 0.69 | 4214 |
| DHRS4L1 (GeneID 728635) | -0.02 | migration z between -2 and 2; enough cells | 0.88 | 5795 |
| CSDC2 (GeneID 27254) | -0.76 | migration z between -2 and 2; enough cells | 0.69 | 5406 |
| L2HGDH (GeneID 79944) | -0.03 | migration z between -2 and 2; enough cells | 0.8 | 5382 |
| SURF2 (GeneID 6835) | 0.46 | migration z between -2 and 2; enough cells | 1 | 5844 |
| INMT (GeneID 11185) | -1.38 | migration z between -2 and 2; enough cells | 0.54 | 4969 |
| DUSP16 (GeneID 80824) | -0.13 | migration z between -2 and 2; enough cells | 0.78 | 4921 |
| DKKL1 (GeneID 27120) | 0.62 | migration z between -2 and 2; enough cells | 1.04 | 5789 |
| NLRP5 (GeneID 126206) | 0.06 | migration z between -2 and 2; enough cells | 0.9 | 4570 |
| MEIS2 (GeneID 4212) | -0.31 | migration z between -2 and 2; enough cells | 0.74 | 4660 |
| DACT2 (GeneID 168002) | 0.66 | migration z between -2 and 2; enough cells | 1.06 | 4878 |
| SEMA5A (GeneID 9037) | 1.02 | migration z between -2 and 2; enough cells | 1.15 | 5450 |
| CCDC62 (GeneID 84660) | 0.38 | migration z between -2 and 2; enough cells | 0.99 | 6229 |
| AREL1 (GeneID 9870) | 0.21 | migration z between -2 and 2; enough cells | 0.84 | 4143 |
| ELMO2 (GeneID 63916) | 0.16 | migration z between -2 and 2; enough cells | 0.93 | 5200 |
| TRMT10C (GeneID 54931) | 0.97 | migration z between -2 and 2; enough cells | 1.14 | 6718 |
